From PMC9576728
Results are given in words; binding and its absence hold for the method and conditions named. In cells and extracts the contact can be indirect. Some results given as binding are weak or reduced against the parent protein; the word gives no strength. Sequences can lack the tags named with a protein.

Assays:
[1] = molecular target: T1, POU2F3 (UniProt Q9UKI9); assay: co-IP; immunoprecipitation-western blot of HEK293T cells expressing HA-COLCA2 (WT or DAAPP mutant) and POU2F3 (Fig. 1g); which protein was precipitated is not told
T1 sequence: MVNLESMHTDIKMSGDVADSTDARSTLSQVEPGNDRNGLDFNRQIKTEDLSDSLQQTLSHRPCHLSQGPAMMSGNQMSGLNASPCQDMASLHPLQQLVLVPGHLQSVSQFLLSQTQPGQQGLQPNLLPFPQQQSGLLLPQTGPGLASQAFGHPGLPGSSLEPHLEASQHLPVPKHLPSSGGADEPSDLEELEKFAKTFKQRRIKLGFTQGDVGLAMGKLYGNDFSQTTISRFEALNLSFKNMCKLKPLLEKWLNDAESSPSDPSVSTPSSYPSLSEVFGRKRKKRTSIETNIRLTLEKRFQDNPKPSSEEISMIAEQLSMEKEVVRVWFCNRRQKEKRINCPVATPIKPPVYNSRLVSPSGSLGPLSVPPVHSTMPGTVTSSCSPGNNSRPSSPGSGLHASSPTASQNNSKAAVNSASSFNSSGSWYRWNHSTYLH

[2] = molecular target: T2, FLAG-POU2F3 (UniProt Q9UKI9); assay: co-IP; immunoprecipitation-western blot of HEK293T cells expressing FLAG-POU2F3 and HA-COLCA2-WT/DAAPP (Fig. 1h); which protein was precipitated is not told
T2 sequence: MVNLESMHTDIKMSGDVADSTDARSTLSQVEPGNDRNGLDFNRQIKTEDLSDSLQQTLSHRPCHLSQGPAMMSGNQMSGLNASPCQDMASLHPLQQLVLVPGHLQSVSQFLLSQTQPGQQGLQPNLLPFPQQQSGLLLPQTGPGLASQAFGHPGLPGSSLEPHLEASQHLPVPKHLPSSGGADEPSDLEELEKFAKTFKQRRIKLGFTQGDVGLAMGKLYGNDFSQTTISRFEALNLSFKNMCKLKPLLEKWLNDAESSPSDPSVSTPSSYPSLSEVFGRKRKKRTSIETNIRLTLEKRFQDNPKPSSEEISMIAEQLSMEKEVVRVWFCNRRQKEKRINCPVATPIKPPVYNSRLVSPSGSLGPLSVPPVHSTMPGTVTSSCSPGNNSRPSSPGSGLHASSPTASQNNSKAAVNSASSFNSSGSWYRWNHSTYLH

B1: HA-COLCA2 (WT) (protein, UniProt A8K830 1-251)
chain: MSEKPKVYQGVRVKITVKELLQQRRAHQAASGGTRSGGSSVHLSDPVAPSSAGLYFEPEPISSTPNYLQRGEFSSCVSCEENSSCLDQIFDSYLQTEMHPEPLLNSTQSAPHHFPDSFQATPFCFNQSLIPGSPSNSSILSGSLDYSYSPVQLPSYAPENYNSPASLDTRTCGYPPEDHSYQHLSSHAQYSCFSSATTSICYCASCEAEDLDALQAAEYFYPSTDCVDFAPSAAATSDFYKRETNCDICYS
binding [1]: binds
binding [2]: binds
